Data from PMC7862700.
The list shows a part of the results, in another mix than the full data. At the low end of the ranking, values are background and their order means little.

The chains behind the UniProt entries cited, without tags or fusion partners. Where a name states a change or a piece, a line headed by the entry shows the natural chain unless it says otherwise.
UniProt O43186: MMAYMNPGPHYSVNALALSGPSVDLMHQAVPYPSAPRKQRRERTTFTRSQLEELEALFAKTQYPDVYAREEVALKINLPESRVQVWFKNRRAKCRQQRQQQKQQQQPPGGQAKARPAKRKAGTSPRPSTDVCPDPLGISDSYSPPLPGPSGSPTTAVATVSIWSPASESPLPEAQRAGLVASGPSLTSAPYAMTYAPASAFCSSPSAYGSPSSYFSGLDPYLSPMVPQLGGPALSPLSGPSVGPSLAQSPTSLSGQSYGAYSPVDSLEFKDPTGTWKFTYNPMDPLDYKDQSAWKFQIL

Tests used:
Experiment in all cases: DAPPL (digital affinity profiling via proximity ligation, sequencing)
Settings in all cases: 10 mM Tris-HCl pH 7.5, 50 mM NaCl, 1 mM DTT, 4% glycerol, room temperature, 30 min; GST-TFs on glutathione beads, 16-mer random dsDNA library, 0.1% …; high values mean tight binding; double strand, one strand shown; scale: fold enrichment (6-mer frequency, TF over GST control)
FEV = molecular target: T1, FEV (UniProt Q99581)
T1 sequence: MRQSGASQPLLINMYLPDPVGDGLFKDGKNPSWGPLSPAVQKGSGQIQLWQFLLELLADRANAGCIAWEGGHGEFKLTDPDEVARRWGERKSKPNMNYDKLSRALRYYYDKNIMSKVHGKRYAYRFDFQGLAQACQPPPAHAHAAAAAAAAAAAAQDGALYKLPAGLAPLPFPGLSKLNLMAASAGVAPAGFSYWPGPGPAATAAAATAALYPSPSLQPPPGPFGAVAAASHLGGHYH

CRX = CRX (UniProt O43186)
ELF5 = molecular target: T2, ELF5 (UniProt Q9UKW6-2)
T2 sequence: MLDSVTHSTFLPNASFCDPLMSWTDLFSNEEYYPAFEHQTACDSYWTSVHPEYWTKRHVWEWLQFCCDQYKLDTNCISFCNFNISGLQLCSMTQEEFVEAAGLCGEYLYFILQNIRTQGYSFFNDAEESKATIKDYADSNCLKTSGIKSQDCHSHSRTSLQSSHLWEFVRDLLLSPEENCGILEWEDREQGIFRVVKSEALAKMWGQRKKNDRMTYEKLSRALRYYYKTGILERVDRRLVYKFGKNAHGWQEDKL

Sequence | binding signal (FEV) | binding signal (CRX) | binding signal (ELF5)
GTTTGA | 1.13 | 0.987 | –
TCAGAC | 0.932 | 0.879 | 0.839
CTGTGC | 1.03 | 0.892 | –
TAAGTC | 0.834 | 1.79 | 0.836
TGGTGA | 0.922 | 0.857 | 0.921
GCTAGA | 0.945 | 1.15 | 0.995
CAACTG | 1.14 | 0.844 | 1.08
CAATGC | 1.16 | 0.926 | 1.13
CTCGTC | 1.31 | 1.02 | –
GTGCAC | 0.987 | 0.615 | 0.934
CATTCA | 1.01 | 0.874 | 1.02
GACGAC | 0.985 | 0.723 | –
GCGTTA | 0.871 | 1.06 | 0.877
CAGCTC | 0.981 | 0.965 | 0.934
TAAGCG | 0.919 | 1.86 | –
GCAACA | 0.993 | 0.689 | 0.992
AACGCG | 0.966 | 0.883 | –

Record cards, from the list above.
CTGTGC as listed: binding signal (FEV) = 1.03; binding signal (CRX) = 0.892
GCTAGA as listed: binding signal (FEV) = 0.945; binding signal (CRX) = 1.15; binding signal (ELF5) = 0.995

Next part:

Sequence | binding signal (FEV) | binding signal (CRX) | binding signal (ELF5)
TCGCGA | 0.825 | 0.992 | 0.877
GCCATC | 0.927 | 0.765 | 0.89
GCTAGT | 1.03 | 0.952 | 0.962
GAAAGG | 0.975 | 0.816 | 0.945
TGGGAA | 0.95 | 0.887 | –
GATACA | 0.992 | 0.775 | –
TCCTTC | 2.2 | 1.72 | –
GTTGAC | 1.18 | 0.794 | –
AGTGCA | 1.15 | 0.763 | –
AATGAA | 1.11 | 1.03 | –
CGTTGC | 1.11 | 0.755 | –
CGACGC | 0.997 | 0.781 | –
TAACCA | 1 | 1.31 | –
ATGCGT | 1.01 | 0.936 | –
CCACCG | 1.26 | 0.769 | –
TTCTCT | 1.22 | 1.49 | –
